Source: US20220332699A1 (SAGE THERAPEUTICS, INC., priority 2019, published 2022)
pIC50: −log10 of the molar value. The match of structure and compound is tentative.

Sequences of proteins named here, by UniProt entry; tags and fusion partners are left off.
UniProt Q9Y6A2, whole entry: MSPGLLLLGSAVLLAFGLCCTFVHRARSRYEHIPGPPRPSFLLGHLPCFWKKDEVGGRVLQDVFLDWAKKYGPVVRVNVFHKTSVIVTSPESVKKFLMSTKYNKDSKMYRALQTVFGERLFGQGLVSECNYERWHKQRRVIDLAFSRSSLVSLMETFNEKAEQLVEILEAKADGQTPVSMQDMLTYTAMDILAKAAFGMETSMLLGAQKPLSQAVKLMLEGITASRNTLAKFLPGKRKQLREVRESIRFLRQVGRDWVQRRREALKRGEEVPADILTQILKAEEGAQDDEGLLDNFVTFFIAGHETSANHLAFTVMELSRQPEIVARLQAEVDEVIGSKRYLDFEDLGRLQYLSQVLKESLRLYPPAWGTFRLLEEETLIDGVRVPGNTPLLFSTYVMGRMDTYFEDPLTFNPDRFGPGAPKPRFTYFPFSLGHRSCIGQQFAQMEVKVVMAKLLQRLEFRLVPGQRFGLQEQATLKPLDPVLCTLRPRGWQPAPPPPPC

Molecular target: CYP46A1 (Homo sapiens, UniProt Q9Y6A2)
Test: CYP46A1 Enzyme Assay 2 (testosterone substrate, HPLC-MS)
Settings: read-out: IC50 (CYP46A1 inhibitory activity)
Description: Briefly, in a 384-well plate format, 10 μL per well of an enzyme-substrate mixture of CYP46A1 (5 μM final concentration) and Testosterone ([…] final concentration) were dispensed to wells containing test compound. For CYP46A1 titration, 5 μL per well of serially diluted CYP46A1 (concentrations including 10 μM, 5 μM, and 2.5 μM) and Testosterone (concentration of […]) were dispensed. For Testosterone titration, 5 μL per well of serially diluted Testosterone (concentrations including 10 μM, 5 μM, and 2.5 μM) and CYP46A1 (concentration of 5 μM) were dispensed. The plates were centrifuged at 1000 rpm for 30 seconds, and then sealed and incubated at 37° C. for 30 minutes. The plate was removed from the incubator, and then 10 μL per well of NADPH-generating system were dispensed to initiate the reaction. The plates were incubated at 37° C. for 15 minutes, added with 80 μL per well of 100% methanol consisting 1 ng/ml diclofenac as internal standard, and then transferred for HPLC-MS.

SMILES: Cc1ccccc1CC1(C#N)CCN(C(=O)c2cccnc2-c2ccncc2)CC1
- pIC50: > 7.00
